Experimental data taken from article PMC6620282.
No constants are given. Whether binding was seen depends on the method and setting. In cells and extracts the contact can be indirect. Some results given as binding are weak or reduced against the parent protein; the word gives no strength.

Protein sequences, listed by entry. Tags and fused reporters are not part of them. Residues count along the entry.
UniProt P08887, residues 20-468: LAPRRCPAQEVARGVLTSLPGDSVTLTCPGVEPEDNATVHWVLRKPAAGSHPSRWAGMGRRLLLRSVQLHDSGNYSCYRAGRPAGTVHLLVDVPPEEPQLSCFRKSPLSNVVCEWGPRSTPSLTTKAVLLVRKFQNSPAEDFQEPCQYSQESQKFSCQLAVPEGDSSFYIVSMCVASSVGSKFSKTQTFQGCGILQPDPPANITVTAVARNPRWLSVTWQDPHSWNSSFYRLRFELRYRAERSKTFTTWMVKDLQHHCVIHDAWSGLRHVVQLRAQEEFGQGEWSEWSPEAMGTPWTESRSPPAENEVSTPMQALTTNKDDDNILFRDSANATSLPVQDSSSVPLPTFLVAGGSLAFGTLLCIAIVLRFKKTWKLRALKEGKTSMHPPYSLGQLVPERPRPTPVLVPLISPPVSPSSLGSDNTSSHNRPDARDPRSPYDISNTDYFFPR

Molecular target: IL6Rα (IL-6 receptor alpha) (human (endogenous in AGS and STKM2)) (UniProt P08887)
Assay: proximity ligation; Duolink in situ PLA on fixed, permeabilised AGS cells expressing TFF1 (adenovirus), IL6 (100 ng/mL, 3 h); mouse anti-IL6Rα with rabbit anti-GP130 or rabbit anti-TFF1

binding: binds
B1: Trefoil factor 1 (TFF1) (protein, UniProt P04155 25-84)
chain: EAQTETCTVAPRERQNCGFPGVTPSQCANKGCCFDDTVRGVPWCFYPNTIDVPPEEECEF
